Substitutions are numbered along the chain they refer to. These are yes or no findings as the source states them, for the method shown. Binding seen in cells or lysates may run through a third protein. For part of these data: Binding can be weak; no strength is given. Where a sequence is shown, tags or fusion partners need not be part of it.
Legend:
[1] = target: T1, GST fused zebrafish Mypt1 1-300 mutant (KMKF), sq181 allele (zebrafish) (UniProt Q6DRG7); experiment: pull-down; purified GST or GST-Mypt1 1-300 proteins (increasing amounts) incubated with HEK293T lysates in NETN buffer (20 mM Tris-HCl pH 8.0, 100 mM NaCl, 1 mM EDTA, 0.5% NP-40), sedimented with glutathione beads, blotted with anti-GFP; only the target purified
T1 sequence: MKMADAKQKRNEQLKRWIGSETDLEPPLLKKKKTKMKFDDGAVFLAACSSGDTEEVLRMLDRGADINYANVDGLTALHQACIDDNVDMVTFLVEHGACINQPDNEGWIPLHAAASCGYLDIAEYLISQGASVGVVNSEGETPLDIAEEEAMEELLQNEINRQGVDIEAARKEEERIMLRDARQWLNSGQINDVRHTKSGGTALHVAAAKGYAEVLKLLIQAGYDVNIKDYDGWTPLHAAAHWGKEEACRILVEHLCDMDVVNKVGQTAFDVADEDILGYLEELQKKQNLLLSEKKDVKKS

By UniProt entry, the sequences of proteins in these tests, tags left out. Where a name states a change or a piece, a line headed by the entry shows the natural chain unless it says otherwise.
UniProt A0A8M1N207: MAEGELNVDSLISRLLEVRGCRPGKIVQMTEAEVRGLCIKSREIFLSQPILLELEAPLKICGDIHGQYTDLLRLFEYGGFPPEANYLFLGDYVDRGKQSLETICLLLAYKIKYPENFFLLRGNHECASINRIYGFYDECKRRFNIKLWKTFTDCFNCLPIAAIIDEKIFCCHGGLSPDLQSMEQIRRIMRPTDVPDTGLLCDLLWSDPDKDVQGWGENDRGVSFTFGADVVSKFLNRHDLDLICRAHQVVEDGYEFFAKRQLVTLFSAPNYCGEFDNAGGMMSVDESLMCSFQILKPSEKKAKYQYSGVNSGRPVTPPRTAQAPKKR
UniProt Q1JPZ8: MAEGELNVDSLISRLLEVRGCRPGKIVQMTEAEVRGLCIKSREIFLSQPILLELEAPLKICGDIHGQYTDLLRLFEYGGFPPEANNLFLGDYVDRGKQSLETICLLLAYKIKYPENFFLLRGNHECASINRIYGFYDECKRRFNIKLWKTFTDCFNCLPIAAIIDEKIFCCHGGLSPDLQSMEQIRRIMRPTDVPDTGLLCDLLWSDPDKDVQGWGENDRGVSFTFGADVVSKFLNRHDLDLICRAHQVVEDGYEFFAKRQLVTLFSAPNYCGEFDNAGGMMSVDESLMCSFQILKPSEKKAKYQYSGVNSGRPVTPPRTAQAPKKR

[2] = target: T2, GST fused wild type zebrafish Mypt1 1-300 (KVKF) (zebrafish) (UniProt Q6DRG7); experiment: as above
T2 sequence: T1 sequence with M36V

[3] = target: T3, Myc-tagged zebrafish Mypt1, KAKA mutant (null) (zebrafish) (UniProt Q6DRG7); experiment: co-IP; Myc-Mypt1 and GFP-PP1beta or GFP co-expressed in HEK293T, lysed in NETN buffer, IP with anti-myc, blotted with anti-GFP and anti-myc
T3 sequence: T1 sequence with M36A, F38A

binding [1] | binding [2] | binding [3] | Substance
binds weakly | binds | no binding | GFP-tagged zebrafish PP1Ba (protein phosphatase 1 beta paralog a, product of ppp1cba) (from UniProt A0A8M1N207) (enzyme)
binds weakly | binds | no binding | GFP-tagged zebrafish PP1Bb (protein phosphatase 1 beta paralog b, product of ppp1cbb) (from UniProt Q1JPZ8) (enzyme)

— publication PMC3770619
